Measured values reported in PubChem BioAssay AID504444 (National Center for Advancing Translational Sciences (NCATS), 2011).
In all, about 360,000 compounds went through this assay and about 7,500 (2.1%) were called active. Inconclusive results, whose numbers are uncertain, are shown with a selection of clear calls. Calls follow the shape of the dose curve; as a rule, active = well fitted inhibition curve with a large enough effect; inconclusive = small, poorly fitted or top-dose-only effect, or effect the other way; inactive = flat fitted curve, though single readings scatter. Potencies of inconclusive entries are doubtful fits and often do not repeat.

Test: Nrf2 qHTS screen for inhibitors; also: nearly all actives have a fitted effect of over 60% in size
Conditions: A549 ARE-Fluc reporter, luciferase luminescence, 18-24 h; activity change, negative = inhibition: at 46 µM (top of the series)
Outline: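 A549 ARE_Fluc cells, 5000/well, 5% FBS OPTI-MEM; compounds in dose-response, 18-24 h at 37 °C/5% CO2; CellTiter-Fluor viability read (Ex 405/Em 525), then BugLite luciferase luminescence = Nrf2 activity.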
% is scaled to controls: 0 for no effect and ±100 for the full control effect; potency is read from the fitted curve at half-maximal effect.

Structure (SMILES) | Potency | activity change, negative = inhibition
COc1ccc(NC(=O)c2cncc(Br)c2)cc1S(N)(=O)=O | inconclusive: 0.0731 µM [activator, full curve, poor fit] | –
Cc1nn(Cc2ccc(F)cc2)c(C)c1NC(=O)C1c2ccccc2Oc2ccccc21 | inconclusive: 29.1 µM [falling, partial curve, poor fit] | –
CC(=O)c1cccc(NC(=O)CCCSc2nc(-c3ccco3)cc(C(F)(F)F)n2)c1 | inconclusive: 16.4 µM [falling, single point] | –
COc1ccc(OC)c(C2=Nn3c(nnc3-c3cc(OC)ccc3OC)SC2)c1 | inconclusive: 32.6 µM [falling, partial curve, poor fit] | –
CC[n+]1ccccc1/C=C/c1ccc(N(C)C)cc1 | active: 5.8 µM | –
COc1ccc(Oc2c(C)nc(SCC(=O)c3ccc(Cl)cc3)[nH]c2=O)cc1 | inconclusive: 6.51 µM [activator, single point] | –
CC(C)N(C(=O)[C@H]1CC(CC(=O)NCC23CC4CC(CC(C4)C2)C3)C(=O)N2CCc3c([nH]c4ccccc34)[C@]12C)C(C)C (some centres not stated) | active: 25.9 µM | –
N#CN1CCC(NS(=O)(=O)c2ccc(C(F)(F)F)cc2)C1 (configuration not stated) | inconclusive: 29.1 µM [falling, single point] | –
CCc1ccc(NC(=O)CC2C(=O)N(c3ccc(OC)cc3)C(=O)N2Cc2cccs2)cc1 (configuration not stated) | inconclusive: 29.1 µM [activator, single point] | –
CC(C)(C)c1ccc(/C=C/C(=O)N2CCOCC2)cc1 | inconclusive: 2.06 µM [activator, full curve, poor fit] | –
O=C(NCc1cccs1)NC1CCCCC1 | inconclusive: 8.2 µM [activator, partial curve, poor fit] | –
COc1cc(OC)c(N(C)C(=O)CSc2c3c(nc4ccc(Cl)cc24)CCCC3)cc1Cl | – | inactive: -22.9%
O=C(Cc1ccc2c(c1)OCCO2)Nc1ccc(Cl)c(S(=O)(=O)N2CCOCC2)c1 | inconclusive: 16.4 µM [falling, single point] | –
Cc1ccc(C(=O)Nc2ccc3oc(-c4cc(Br)ccc4Cl)nc3c2)cc1 | inconclusive: 10.3 µM [falling, partial curve] | –
CC(C)Oc1ccccc1C1CC(=O)Nc2cc3c(cc21)OCO3 (configuration not stated) | active: 7.31 µM | –
Cc1c(C(=O)Nc2nc(-c3ccccn3)cs2)oc2ccccc12 | inconclusive: 23.1 µM [falling, partial curve] | –
CCCOc1ccc(C(=O)Nc2ccc(S(=O)(=O)Nc3onc(C)c3C)cc2)cc1 | inconclusive: 29.1 µM [activator, partial curve, poor fit] | –
